No constants are given. Whether binding was seen depends on the method and setting. In cells and extracts the contact can be indirect.
B1: KDM2B (protein, UniProt Q8NHM5 1-1336)
chain: MAGPQMGGSAEDHPPRKRHAAEKQKKKTVIYTKCFEFESATQRPIDRQRYDENEDLSDVEEIVSVRGFSLEEKLRSQLYQGDFVHAMEGKDFNYEYVQREALRVPLIFREKDGLGIKMPDPDFTVRDVKLLVGSRRLVDVMDVNTQKGTEMSMSQFVRYYETPEAQRDKLYNVISLEFSHTKLEHLVKRPTVVDLVDWVDNMWPQHLKEKQTEATNAIAEMKYPKVKKYCLMSVKGCFTDFHIDFGGTSVWYHVFRGGKIFWLIPPTLHNLALYEEWVLSGKQSDIFLGDRVERCQRIELKQGYTFFIPSGWIHAVYTPVDSLVFGGNILHSFNVPMQLRIYEIEDRTRVQPKFRYPFYYEMCWYVLERYVYCVTQRSHLTQEYQRESMLIDAPRKPSIDGFSSDSWLEMEEEACDQQPQEEEEKDEEGEGRDRAPKPPTDGSTSPTSTPSEDQEALGKKPKAPALRFLKRTLSNESEESVKSTTLAVDYPKTPTGSPATEVSAKWTHLTEFELKGLKALVEKLESLPENKKCVPEGIEDPQALLEGVKNVLKEHADDDPSLAITGVPVVTWPKKTPKNRAVGRPKGKLGPASAVKLAANRTTAGARRRRTRCRKCEACLRTECGECHFCKDMKKFGGPGRMKQSCIMRQCIAPVLPHTAVCLVCGEAGKEDTVEEEEGKFNLMLMECSICNEIIHPGCLKIKESEGVVNDELPNCWECPKCNHAGKTGKQKRGPGFKYASNLPGSLLKEQKMNRDNKEGQEPAKRRSECEEAPRRRSDEHSKKVPPDGLLRRKSDDVHLRKKRKYEKPQELSGRKRASSLQTSPGSSSHLSPRPPLGSSLSPWWRSSLTYFQQQLKPGKEDKLFRKKRRSWKNAEDRMALANKPLRRFKQEPEDELPEAPPKTRESDHSRSSSPTAGPSTEGAEGPEEKKKVKMRRKRRLPNKELSRELSKELNHEIQRTENSLANENQQPIKSEPESEGEEPKRPPGICERPHRFSKGLNGTPRELRHQLGPSLRSPPRVISRPPPSVSPPKCIQMERHVIRPPPISPPPDSLPLDDGAAHVMHREVWMAVFSYLSHQDLCVCMRVCRTWNRWCCDKRLWTRIDLNHCKSITPLMLSGIIRRQPVSLDLSWTNISKKQLSWLINRLPGLRDLVLSGCSWIAVSALCSSSCPLLRTLDVQWVEGLKDAQMRDLLSPPTDNRPGQMDNRSKLRNIVELRLAGLDITDASLRLIIRHMPLLSKLHLSYCNHVTDQSINLLTAVGTTTRDSLTEINLSDCNKVTDQCLSFFKRCGNICHIDLRYCKQVTKEGCEQFIAEMSVSVQFGQVEEKLLQKLS
B2: RYBP (protein, UniProt Q8N488 1-228)
chain: MTMGDKKSPTRPKRQAKPAADEGFWDCSVCTFRNSAEAFKCSICDVRKGTSTRKPRINSQLVAQQVAQQYATPPPPKKEKKEKVEKQDKEKPEKDKEISPSVTKKNTNKKTKPKSDILKDPPSEANSIQSANATTKTSETNHTSRPRLKNVDRSTAQQLAVTVGNVTVIITDFKEKTRSSSTSSSTVTSSAGSEQQNQSSSGSESTDKGSSRSSTPKGDMSAVNDESF
B3: CBX8 (protein, UniProt Q9HC52 1-389)
chain: MELSAVGERVFAAEALLKRRIRKGRMEYLVKWKGWSQKYSTWEPEENILDARLLAAFEEREREMELYGPKKRGPKPKTFLLKAQAKAKAKTYEFRSDSARGIRIPYPGRSPQDLASTSRAREGLRNMGLSPPASSTSTSSTCRAEAPRDRDRDRDRDRERDRERERERERERERERERERGTSRVDDKPSSPGDSSKKRGPKPRKELPDPSQRPLGEPSAGLGEYLKGRKLDDTPSGAGKFPAGHSVIQLARRQDSDLVQCGVTSPSSAEATGKLAVDTFPARVIKHRAAFLEAKGQGALDPNGTRVRHGSGPPSSGGGLYRDMGAQGGRPSLIARIPVARILGDPEEESWSPSLTNLEKVVVTDVTSNFLTVTIKESNTDQGFFKEKR

Amino acid sequences for entries named in this document (tags omitted). A change or cut given only in a name is not applied to a line headed by its entry. Chains listed by the source or under a name are the forms on record and can include a tag or linker.
FLAG-SET/TAF-Iβ (Q01105, form named): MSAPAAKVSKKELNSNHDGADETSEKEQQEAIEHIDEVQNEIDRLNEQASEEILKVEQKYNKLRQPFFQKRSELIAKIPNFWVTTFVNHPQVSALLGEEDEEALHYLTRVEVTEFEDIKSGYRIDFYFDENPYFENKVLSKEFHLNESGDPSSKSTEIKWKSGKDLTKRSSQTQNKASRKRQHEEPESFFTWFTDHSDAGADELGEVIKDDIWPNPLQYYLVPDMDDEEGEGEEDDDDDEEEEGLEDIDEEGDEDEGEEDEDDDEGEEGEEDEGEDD
UniProt P35226: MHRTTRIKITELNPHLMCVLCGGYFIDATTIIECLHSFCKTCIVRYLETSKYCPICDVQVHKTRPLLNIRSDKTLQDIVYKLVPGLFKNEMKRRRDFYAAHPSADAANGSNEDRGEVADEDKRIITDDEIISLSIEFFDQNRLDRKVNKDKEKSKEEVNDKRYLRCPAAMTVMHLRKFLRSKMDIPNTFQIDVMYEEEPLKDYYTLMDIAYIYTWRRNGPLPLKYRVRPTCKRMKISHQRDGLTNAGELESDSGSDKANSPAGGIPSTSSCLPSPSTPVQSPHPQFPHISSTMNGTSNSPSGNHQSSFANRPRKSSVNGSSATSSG
UniProt Q99496: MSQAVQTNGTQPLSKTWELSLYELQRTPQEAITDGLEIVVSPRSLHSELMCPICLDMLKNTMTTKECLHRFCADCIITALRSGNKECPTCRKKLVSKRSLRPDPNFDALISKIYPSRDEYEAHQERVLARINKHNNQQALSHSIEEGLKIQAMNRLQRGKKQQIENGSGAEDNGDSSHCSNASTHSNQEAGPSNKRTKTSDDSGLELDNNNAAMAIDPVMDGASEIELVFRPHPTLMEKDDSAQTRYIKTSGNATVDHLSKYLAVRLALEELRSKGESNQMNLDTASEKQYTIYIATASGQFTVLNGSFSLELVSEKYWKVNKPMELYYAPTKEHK

The molecules below were run against FLAG-SET/TAF-Iβ (UniProt Q01105) (assay: co-IP; ectopic expression followed by co-IP of SET/TAF-Iβ with PRC1-associated proteins; cells and tags not given).

binding, no binding:
BMI1 (from UniProt P35226 1-326)
RING1B (from UniProt Q99496 1-336)
B1
B2
B3
